Measured values as given in PubChem BioAssay AID1259415 (National Center for Advancing Translational Sciences (NCATS), 2018).
“And” between values parts separate entries of the source, which are not always exact repeats. Identical values can stand only once. Among all 410,000 compounds or so, about 18,000 (4.4%) were called active. The shares of active, inactive and inconclusive entries below differ from those in the screen. No stated cut-off is given here; in the data, active means activity change below about -60%; inconclusive means no clear call, values can overlap the other calls; inactive means above about -39%.
On the % scale 0 is the no-effect control and ±100 the full control effect.

Test: qHTS Assay for inhibitors of the human cytomegalovirus (HCMV)
Conditions: HFF cells, HCMV-luciferase reporter, 72 h; at 57.5 µM; stronger effect = lower value
Outline: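 HFF cells seeded 16 h at 37C, treated with compounds, infected with luciferase-reporter HCMV at MOI 1 PFU/cell; luciferase read at 72 h post infection, normalized to buffer-only and Salinomycin controls.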
For `COc1ccc2nc(Nc3nc4ccc(NC(C)=O)cc4s3)sc2c1`, the activity change, negative = inhibition was inconclusive: -48.9%. With `O=C1c2ccccc2NC(c2ccc(-c3ccc(C(F)(F)F)cc3)o2)N1O` (configuration not stated) the activity change, negative = inhibition was inconclusive: -46.7%. In the case of `O=C(c1ccc(Cl)cc1)N1N=C(c2ccccn2)CC1(O)C(F)(F)F` (configuration not stated), the activity change, negative = inhibition is reported as active: -98.8%. With `CC(C)N1CCc2c(sc(NC(=O)c3cc4cc([N+](=O)[O-])ccc4s3)c2C(N)=O)C1` the activity change, negative = inhibition was active: -94.7%. For `CCc1ccc(CN(C)C(=O)CCc2nnc(-c3ccc(-c4ccccc4)cc3)o2)nc1`, the activity change, negative = inhibition was inconclusive: 0%. With `Cc1nc(-c2ccc(S(=O)(=O)N3CCN(Cc4ccccc4)CC3)s2)cs1` the activity change, negative = inhibition was inconclusive: -52.8%. In the case of `CN(N)c1nc(C(F)(F)F)nc2ccccc12`, the activity change, negative = inhibition is reported as inconclusive: -55.7%. With `C=C1C(=O)OC2CC1C(O)CC(C)=CCCC(C)=CC(O)CC2C` (configuration not stated) the activity change, negative = inhibition was inactive: -34.5%. For `Cc1ccc(S(=O)(=O)/N=C(/c2ccccc2)N(C)c2ccc(O)cc2)cc1`, the activity change, negative = inhibition was inconclusive: -40.5%. In the case of `O=C(COc1ccc(Cl)cc1)N(Cc1ccc(F)cc1)C1CCS(=O)(=O)C1` (configuration not stated), the activity change, negative = inhibition is reported as inconclusive: -40.2%. For `CCc1c(-c2ccccc2)[n+](=O)c2c(n1[O-])CCC2`, the activity change, negative = inhibition was inactive: 78.8%. For `COc1ccccc1CNC(=O)/C(C#N)=C/c1ccc(OC)c(OC)c1OC`, the activity change, negative = inhibition was inconclusive: -60%. With `CC(C)N1C(=O)S/C(=C/c2ccc(Sc3nc4ccccc4[nH]3)o2)C1=O` the activity change, negative = inhibition was active: -84.9%. In the case of `COc1ccc(OC)c(Nc2nc(-c3c(C)nc4ncccn34)cs2)c1`, the activity change, negative = inhibition is reported as inconclusive: -55.2%. With `COc1ccc(C(=O)Nc2ccc(C)cc2C(=O)c2ccccc2)cc1` the activity change, negative = inhibition was inconclusive: -51.7%. For `CCOc1ccc(S(=O)(=O)N(CC(=O)Nc2ccc3c(c2)OCO3)c2ccccc2)cc1`, the activity change, negative = inhibition was inconclusive: -46.6%. In the case of `O=C(Nc1ncnc2sc3c(c12)CCCCC3)c1ccco1`, the activity change, negative = inhibition is reported as inconclusive: -51.5%. For `C[C@H](CO)N1C[C@H](C)[C@H](CN(C)S(=O)(=O)c2ccc(Cl)cc2)OCc2ccccc2-c2c(n(C)c3ccccc23)C1=O`, the activity change, negative = inhibition was active: -67.9%. In the case of `CCOc1ccc(N/C(SCc2cccc([N+](=O)[O-])c2)=C(/C#N)C(N)=O)cc1`, the activity change, negative = inhibition is reported as inconclusive: -47.7%. For `Nc1c(C(=O)c2ccc(F)cc2)sc(Nc2ccccc2F)c1S(=O)(=O)c1ccc(Br)cc1`, the activity change, negative = inhibition was active: -70.7%. For `COc1ccccc1OCCCOc1ccc([N+](=O)[O-])cc1Cl`, the activity change, negative = inhibition was inactive: -15.2%. In the case of `Cc1ccc(S(=O)(=O)N(C)c2ccccc2C(=O)NC2CCCC2)cc1`, the activity change, negative = inhibition is reported as inconclusive: -52.4%. For `COc1cc(C(=O)NCC(=O)Nc2c(C)cccc2C)ccc1OCC(=O)N1CCOCC1`, the activity change, negative = inhibition was inconclusive: -43%. In the case of `Cc1ccc(Cl)cc1S(=O)(=O)N1CCC(C(=O)NC2CCN(Cc3ccccc3)CC2)CC1`, the activity change, negative = inhibition is reported as active: -71.6%. For `CCc1ccccc1NC(=O)CNC(=O)c1cccc(S(=O)(=O)N2CCN(Cc3ccccc3)CC2)c1`, the activity change, negative = inhibition was inactive: -24.6%. For `Cc1cccc(N(C(=O)Cn2nnc3ccccc32)C(C(=O)NC(C)(C)C)c2ccsc2)c1` (configuration not stated), the activity change, negative = inhibition was inconclusive: -47.4%. In the case of `COc1ccc(C(=O)NCC(=O)N/N=C/C=C/c2ccccc2)cc1OC`, the activity change, negative = inhibition is reported as inconclusive: -45.9%. With `NC1=NN=C(N2N=C(c3ccc(Br)cc3)CC2(O)C(F)(F)F)n2ncnc2C1` (configuration not stated) the activity change, negative = inhibition was inconclusive: -46%. For `COc1ccc(-n2c(=O)c3c(c4cc(OC)ccc4n3C)n(Cc3cc(C)ccc3C)c2=O)cc1`, the activity change, negative = inhibition was inactive: -2.55%. With `COc1ccc(/C=C/C=C2\NC(=S)NC2=O)cc1` the activity change, negative = inhibition was inconclusive: -42.3%. In the case of `Cc1ccc(CC(=O)Nc2cc(C)ccn2)cc1`, the activity change, negative = inhibition is reported as inconclusive: -51.5%. For `CCN(CC)S(=O)(=O)c1cc(NC(=O)COC(=O)c2ccc(NC(=O)CC#N)cc2)ccc1C`, the activity change, negative = inhibition was inconclusive: -45.7%. For `COc1cccc(CNC(=O)Cc2ccc(-n3c(=O)[nH]c4ccccc4c3=O)cc2)c1`, the activity change, negative = inhibition was active: -96.8%. For `O=C(Nc1ccccc1F)c1ccc(-n2cncn2)nc1`, the activity change, negative = inhibition was inconclusive: -55.4%. For `N#Cc1ccc(C(=O)NCC2CCCCC2)cc1`, the activity change, negative = inhibition was inactive: -32.1%. In the case of `Cc1n[nH]c(C)c1S(=O)(=O)N1CCCC(C(=O)Nc2nccs2)C1` (configuration not stated), the activity change, negative = inhibition is reported as active: -97.7%. In the case of `CCCCNC(=O)C(c1ccc(OCC(=O)OC)c(C(=O)OC)c1)N(CCOC)C(=O)CCCCCN1C(=O)NC(c2ccc(-c3ccccc3)cc2)C(C(=O)OCc2ccccc2)=C1C` (configuration not stated), the activity change, negative = inhibition is reported as active: -94.9%. For `Cc1ccccc1-[n+]1c(-c2ccccc2)cc(-c2ccccc2)cc1-c1ccccc1`, the activity change, negative = inhibition was active: -96.2%. In the case of `Cc1occc1C(=O)NNS(=O)(=O)c1ccc([N+](=O)[O-])cc1`, the activity change, negative = inhibition is reported as inconclusive: -55.4%. With `COc1ccc(NS(=O)(=O)c2cccc(C(=O)N3CCCCCCC3)c2)cc1` the activity change, negative = inhibition was inconclusive: -58.3%. In the case of `CCOc1ccc(CCNC(=O)c2cc3c(s2)-c2ccccc2OC3)cc1OCC`, the activity change, negative = inhibition is reported as inconclusive: -42.9%. For `Nc1nc(=S)c2ncn([C@@H]3O[C@H](CO)[C@@H](O)[C@H]3O)c2[nH]1`, the activity change, negative = inhibition was active: -88.7%. For `COc1ccc2oc(=O)c(-c3csc(Nc4ccc(O)cc4)n3)cc2c1`, the activity change, negative = inhibition was inconclusive: -56.9%. With `COC(=O)c1cc(Br)c(=O)n(CCN2CCCC2)c1` the activity change, negative = inhibition was active: -89.9%. With `Cn1c(=O)oc2cc(S(=O)(=O)Nc3ccccc3O)ccc21` the activity change, negative = inhibition was inactive: 17.3% and inactive: 5.43%. For `CC(C)Sc1nc2c(c(=O)[nH]c(=O)n2C)n1CC(O)COc1ccccc1` (configuration not stated), the activity change, negative = inhibition was inconclusive: -41.1%. In the case of `O=Cc1ccccc1Oc1ccccc1`, the activity change, negative = inhibition is reported as inconclusive: -48.8%. In the case of `Cc1ccccc1S(=O)(=O)N1C[C@H]2CON(C)[C@H]2C[C@H]1c1cccc(Oc2ccccc2)c1`, the activity change, negative = inhibition is reported as inactive: -21.4%. For `C=C1SC(=Nc2c(C)cccc2Cl)N(C(=O)c2sc3ccccc3c2Cl)C12CCCCC2`, the activity change, negative = inhibition was inconclusive: -54.7%. For `O=C(Nc1cc(Cl)ccc1Cl)C1CC(=O)N(c2ccccc2)C1` (configuration not stated), the activity change, negative = inhibition was inconclusive: -40.6%. With `CCN(Cc1ccccc1)c1ccc(/C=N/NC(=O)c2cccc(S(=O)(=O)N3CCOCC3)c2)cc1` the activity change, negative = inhibition was inconclusive: -48%. With `COc1cc(NC(=O)c2ccc(-c3ccc(F)c(F)c3)c3ccoc23)cc(OC)c1OC` the activity change, negative = inhibition was inactive: -30.3%.
